Measurements: patent US20240294634A1

Tests used:
[1] = biological target: ILT2 D1 domain fragment protein anchored to the cell surface (human); assay: flow cytometry, CHO cells with anchored ILT2 fragment
[2] = biological target: ILT2 D1-D2 domain fragment protein anchored to the cell surface (human); assay: as above
[3] = biological target: ILT2 D1-D2-D3 domain fragment protein anchored to the cell surface (human); assay: as above
[4] = biological target: ILT2 D1 domain fragment protein anchored to the cell surface (human); assay: flow cytometry on CHO cells expressing the anchored ILT2 D1 domain fragment

Measured: binding

B1: 12D12 (antibody, human IgG1, V domains shown)
VH: QVQLQQPGAELVKPGASVRMSCKASGYTFTSYWVHWVKQRPGQGLEWIGVIDPSDSYTSYNQNFKGKATLTVDTSSKTAYIHLSSLTSEDSAVYFCARGERYDGDYFAMDYWGQGTSVTVSS
VL: DIVMTQSPASLSVSVGETVTITCRASENIYSNLAWYQQKQGKSPQLLVYAATNLADGVPSRFSGSRSGTQYSLKINSLQSEDFGTYYCQHFWNTPRTFGGGTKLEIK
binds: all assays above

B2: 27H5 (antibody, human IgG1, V domains shown)
VH: QVQLKESGPGLVAPSQSLSITCTVSGFSLTSYGVSWVRQPPGKGLEWLGVIWGDGNTNYHSALISRLSISKDNSKSQVFLKLNSLQTDDTATYYCARTNWDGWFAYWGQGTLVTVSA
VL: DIVMTQSHKFMSTSVGDRVSITCKASQDVGTAVAWYQQKPGQSPKLLIYWASTRHTGVPDRFTGSGSGTDFTLTISNVQSEDLADYFCQQYRSYPLGTFGGGTKLEIK
binds: all assays above

B3: 3H5 (antibody, human IgG1, V domains shown)
VH: QVQLKESGPGLVAPSQSLSITCTVSGFSLTSYGVSWVRQPPGKGLEWLGVIWGDGSTNYHSALISRLSISKDNSKSQVFLKLNSLQTDDTATYYCAKPRWDDYAMDYWGQGTSVTVSS
VL: DIQMTQTTSSLSASLGDRVTISCRASQDISNYLNWYQQKPDGTVKLLIYYTSRLHSGVPSRFSGSGSGTDYSLTISNLEQEDIATYFCQQGNTLWTFGGGTKLEIK
binds: all assays above

No constants are given. Whether binding was seen depends on the method and setting. A result given as binding can be weak or reduced; the word gives no strength.
